30 compounds from PubChem BioAssay AID248 (DTP/NCI, 2004) can be followed below.

The structures appear in SMILES notation. The list is a part of this screen's results and no random one: it gathers tests that were run many times, whatever their T/C, doses with no T/C, and many T/C values between a quarter and a half above the control. Other doses and runs of a compound stand elsewhere. T/C: endpoint of the treated group in % of that of the vehicle group. Some entries give survivors of the animals treated and no T/C: the source holds a T/C of zero for them, seemingly a mark for toxic or unscored doses. Some survivor counts are full or nearly so, which does not show that the dose was tolerated: survival well below the control is almost never listed, so the zero probably covers shortened survival too. Counts of survivors are from the toxicity check (mostly the fifth day) where no day follows; animals may have died later. Schedules are NCI's codes, taken here to give the interval after Q, in days (D) or hours (H), and the number of doses after X. Some entries were tested several times; the results are listed from low to high. Where survival is the endpoint, the PubChem record calls one and a half times the control and up active, and a quarter to a half above the control has no call in these data; cut-offs in other NCI protocols can differ.

This assay deals with L1210 leukemia ip in BDF1 mice, survival T/C. The experiment in a line: NCI In Vivo Anticancer Drug Screen. Data for tumor model L1210 Leukemia (intraperitoneal) in B6D2F1 (BDF1) mice. The following applies: T/C endpoint: mean survival time, higher T/C = longer survival.
The mark [1] stands for this setting: dose: 400.0 mg/kg/injection, schedule: Q01DX009 (ip), vehicle: Klucel (hydroxypropylcellulose) (HPC).
Setting [2] is: dose: 100.0 mg/kg/injection, schedule: Q04DX003 (ip), vehicle: saline with Tween-80.
[3] abbreviates: dose: 200.0 mg/kg/injection, schedule: Q04DX003 (ip), vehicle: saline with Tween-80.
[4] abbreviates: dose: 400.0 mg/kg/injection, schedule: Q04DX003 (ip), vehicle: saline with Tween-80.
Where [5] appears, read: dose: 100.0 mg/kg/injection, schedule: Q04DX002 (ip), vehicle: Klucel (hydroxypropylcellulose) (HPC).
[6] abbreviates: dose: 400.0 mg/kg/injection, schedule: Q04DX002 (ip), vehicle: Klucel (hydroxypropylcellulose) (HPC).
Where [7] appears, read: dose: 50.0 mg/kg/injection, schedule: Q01DX009 (ip), vehicle: saline with Tween-80.
Setting [8] is: dose: 100.0 mg/kg/injection, schedule: Q01DX009 (ip), vehicle: saline with Tween-80.
Setting [9] is: dose: 200.0 mg/kg/injection, schedule: Q04DX003 (ip), vehicle: Klucel (hydroxypropylcellulose) (HPC).
Where [10] appears, read: dose: 400.0 mg/kg/injection, schedule: Q04DX003 (ip), vehicle: Klucel (hydroxypropylcellulose) (HPC).
Setting [11] is: dose: 200.0 mg/kg/injection, schedule: Q01DX009 (ip), vehicle: saline.
Setting [12] is: dose: 400.0 mg/kg/injection, schedule: Q04DX002 (ip), vehicle: saline.
[13] abbreviates: dose: 400.0 mg/kg/injection, schedule: Q04DX003 (ip), vehicle: saline.

Regarding `Cc1cc(C)c(NC(=O)Nc2cccc(Cl)c2)c(C)c1`, under setting [1], the survivor count is given as 4 of 6.

Take `CC12CC3CC(C)(C1)CC(CN=C(N)CSSCC(N)=NCC14CC5CC(C)(CC(C)(C5)C1)C4)(C3)C2`: the survivor count under setting [2] was 0 of 6, the survivor count under setting [3] is 0 of 6 and the survivor count under setting [4] is given as 0 of 6.

Consider `N#CC1(C#N)OC1c1ccccc1Cl` (configuration not stated), for which the survivor count is given as 1 of 3 (dose: 40.0 mg/kg/injection, schedule: Q04DX002 (ip), vehicle: Klucel (hydroxypropylcellulose) (HPC)); 0 of 3 under setting [5]; 0 of 3 (dose: 200.0 mg/kg/injection, schedule: Q04DX002 (ip), vehicle: Klucel (hydroxypropylcellulose) (HPC)); 0 of 3 under setting [6].

Consider `Cc1ccc(C)c(CNC(=O)Nc2ccccc2Cl)c1`, for which, under setting [1], the survivor count was 5 of 6.

With `COc1cc2cnccc2cc1OCc1ccccc1`, the survivor count was 0 of 6 (dose: 200.0 mg/kg/injection, schedule: Q01DX009 (ip), vehicle: water) and 1 of 6 (dose: 400.0 mg/kg/injection, schedule: Q01DX009 (ip), vehicle: water).

Regarding `CCN(CC)CCNC(=O)Nc1ccc(OC)cc1`, the survivor count under setting [1] was 0 of 6.

As for `CCCCC(=O)NN`, the T/C reads like this: (dose: 36.0 mg/kg/injection, schedule: Q01DX009 (ip), vehicle: saline with Tween-80) 136 % of control; under setting [7], 128 % of control. In addition, the survivor count is, setting by setting: under setting [8], 6 of 6; (dose: 160.0 mg/kg/injection, schedule: Q01DX009 (ip), vehicle: saline with Tween-80) 2 of 6; (dose: 166.0 mg/kg/injection, schedule: Q01DX009 (ip), vehicle: saline with Tween-80) 0 of 6; (dose: 200.0 mg/kg/injection, schedule: Q01DX009 (ip), vehicle: saline with Tween-80) 1 of 6; (dose: 400.0 mg/kg/injection, schedule: Q01DX009 (ip), vehicle: saline with Tween-80) 0 of 6.

On to `CC[C@H](/C=C/[C@@H](C)[C@H]1CC[C@H]2[C@@H]3CC=C4C[C@@H](OC(=O)/C=C\C(=O)O)CC[C@]4(C)[C@H]3CC[C@]12C)C(C)C`, for which the survivor count (dose: 50.0 mg/kg/injection, schedule: Q01DX009 (ip), vehicle: water) is given as 3 of 6; the survivor count (dose: 100.0 mg/kg/injection, schedule: Q01DX001 (ip), vehicle: water) is given as 0 of 6; the survivor count (dose: 100.0 mg/kg/injection, schedule: Q04DX003 (ip), vehicle: other) is given as 1 of 6; the survivor count (dose: 200.0 mg/kg/injection, schedule: Q01DX001 (ip), vehicle: water) was 0 of 6; the survivor count (dose: 400.0 mg/kg/injection, schedule: Q01DX001 (ip), vehicle: water) was 0 of 6.

Take `CC1(C)CC(=O)CC(C)(C#N)C1` (configuration not stated): the survivor count is reported as 1 of 6 (dose: 25.0 mg/kg/injection, schedule: Q01DX009 (ip), vehicle: Klucel (hydroxypropylcellulose) (HPC)); 0 of 6 (dose: 50.0 mg/kg/injection, schedule: Q04DX003 (ip), vehicle: Klucel (hydroxypropylcellulose) (HPC)); 0 of 6 (dose: 100.0 mg/kg/injection, schedule: Q04DX003 (ip), vehicle: Klucel (hydroxypropylcellulose) (HPC)); 0 of 6 under setting [9]; 0 of 6 under setting [10].

Take `CCCCOP(=O)(OCCCC)SCl`: under “dose: 400.0 mg/kg/injection, schedule: Q04DX002 (ip), vehicle: saline with Tween-80”, the survivor count is on record as 0 of 3.

As to `CCCCCCCCC(=O)N1CCC(C)CC1`, the survivor count under setting [5] is recorded as 3 of 3.

Take `Cc1cc2cc3c(=O)[nH]c(=O)nc-3n(CC(O)C(O)C(O)COP(=O)(O)O)c2cc1C` (configuration not stated): the survivor count is recorded as 4 of 6 under setting [11] and 0 of 6 (dose: 400.0 mg/kg/injection, schedule: Q01DX009 (ip), vehicle: saline).

With `COc1ccc(N2C(=O)CC(Cl)C2=O)cc1` (configuration not stated), the survivor count is 0 of 6 (dose: 175.0 mg/kg/injection, schedule: Q04DX003 (ip), vehicle: saline with Tween-80) and 0 of 6 (dose: 350.0 mg/kg/injection, schedule: Q04DX003 (ip), vehicle: saline with Tween-80).

Take `Nc1ccc(Cl)cc1C(=O)c1ccccc1`: the survivor count by setting is: (dose: 200.0 mg/kg/injection, schedule: Q04DX002 (ip), vehicle: DMSO) 2 of 3; (dose: 400.0 mg/kg/injection, schedule: Q04DX002 (ip), vehicle: DMSO) 1 of 3.

For `Cc1ccc(Nc2ccc([N+](=O)[O-])cc2)cc1`, the survivor count (dose: 400.0 mg/kg/injection, schedule: Q01DX001 (ip), vehicle: gum acacia) is on record as 3 of 6.

Turning to `Nc1ccc(S(=O)(=O)Nc2cnc3ccccc3n2)cc1`, the survivor count under setting [12] was 3 of 3.

Consider `Nc1ncnc2c1c(-c1nc(-c3ccccc3)cs1)cn2C1OC(CO)C(O)C1O` (configuration not stated), for which the T/C runs as follows: (dose: 100.0 mg/kg/injection, schedule: Q01DX005 (ip), vehicle: saline) 131 and 135 % of control; (dose: 200.0 mg/kg/injection, schedule: Q01DX005 (ip), vehicle: saline) 132 and 148 % of control.

Turning to `O=C(O)C1=CC(O)C(O)C(O)C1` (configuration not stated), the survivor count (dose: 400.0 mg/kg/injection, schedule: Q01DX009 (ip), vehicle: saline sonified) was 6 of 6.

As to `CCCCCCCCCCCCCCC(F)C(=O)OCC1OC(CO)(OC2OC(CO)C(O)C(O)C2O)C(O)C1O` (configuration not stated), the survivor count is, setting by setting: under setting [8], 6 of 6; under setting [3], 0 of 6; under setting [4], 0 of 6.

For `c1ccc(CCN2COc3c(ccc4cccnc34)C2)cc1`, the survivor count under setting [3] was 2 of 6.

In the case of `CC1CCCCN1C(=O)c1ccccc1C(=O)O` (configuration not stated), under setting [6], the survivor count is recorded as 1 of 3.

On to `[Co+3].[NH-]CC(=O)O.[NH-]CC(=O)O.[NH-]CC(=O)O`, for which the survivor count runs as follows: (dose: 100.0 mg/kg/injection, schedule: Q04DX002 (ip), vehicle: saline with Tween-80) 3 of 3; (dose: 800.0 mg/kg/injection, schedule: Q04DX002 (ip), vehicle: saline with Tween-80) 2 of 3.

As for `C=C(Cl)CSC(=S)N(CC)CC`, the survivor count under setting [13] is reported as 1 of 6.

With `CCCCCCCCCCOC(CN)C(Cl)(Cl)Cl` (configuration not stated), the survivor count runs as follows: under setting [7], 3 of 6; under setting [2], 2 of 6; under setting [3], 1 of 6; under setting [4], 0 of 6.

With `O=C(O)c1cc(Br)c2ccccc2c1O`, the survivor count is, setting by setting: under setting [9], 3 of 6; under setting [10], 0 of 6.

`CCN(CC)CCSSCCN(CC)CC`: the survivor count runs as follows: (dose: 200.0 mg/kg/injection, schedule: Q01DX001 (ip), vehicle: saline) 2 of 4; (dose: 400.0 mg/kg/injection, schedule: Q01DX001 (ip), vehicle: saline) 0 of 4.

As to `CC1(C)C2CCC1(C)C(C(=O)C(F)(F)F)C2=O.CC1(C)C2CCC1(C)C(C(=O)C(F)(F)F)C2=O.[Co]` (configuration not stated), under setting [12], the survivor count is reported as 1 of 3.

Take `COc1ccc(C(=O)C(Br)C(Br)C(=O)O)cc1` (configuration not stated): the survivor count is, setting by setting: under setting [11], 2 of 6; under setting [3], 1 of 6 and 3 of 6; (dose: 200.0 mg/kg/injection, schedule: Q04DX003 (ip), vehicle: saline) 3 of 6; under setting [4], 0 of 6; under setting [13], 2 of 6 and 3 of 6.

As to `CN(C(=O)c1ccccc1)N(C)C(=O)c1ccccc1`, the survivor count is, setting by setting: (dose: 100.0 mg/kg/injection, schedule: Q01DX009 (ip), vehicle: Klucel (hydroxypropylcellulose) (HPC)) 3 of 6; under setting [9], 3 of 6.

Consider `Nc1c2ccccc2c[n+]2ccccc12`, for which, under “dose: 25.0 mg/kg/injection, schedule: Q01DX009 (ip), vehicle: saline”, the T/C is 134 % of control.
